Record: PubChem BioAssay AID1259308 (NCATS, 2017)
This is one part, drawn at random, of about 59,000 deposited reagents. Of all reagents, about 1,510 (2.6%) were called active. 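Calls use total luciferase alone and ignore viability, so some active siRNAs may act by altering cell number.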 Reagents against one gene are numbered here. Further read-outs or replicates are left out here. Reagent sequences are not shown.

Purpose: 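Knock-downs that increase output of a recombinant reporter protein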 (primary screen)
System: human HEK293 embryonic kidney cells stably expressing firefly luciferase (HEK-CMV-Luc2-Hygro)
Reagent: single siRNA against human genes, 0.8 pmol siRNA per well
Timing: 72 h
Measured: 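Reporter luminescence and viable-cell signal on separate replicate plates, given as percent of non-targeting control and median/MAD z-scores, plus per-cell luciferase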
Scale: total luciferase, z-score: higher = more reporter protein produced
Rule for the call: 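Active when the median/MAD z-score for overall luciferase is greater than 3; a gene was taken forward for validation with new siRNAs if at least two of its three siRNAs passed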
Calls: active = raised luciferase; inactive = no rise

ANKRD13D (ankyrin repeat domain 13D) #1 showed total luciferase, z-score 0.935; inactive. After knock-down of ANKRD13D (ankyrin repeat domain 13D) #2, the record shows total luciferase, z-score 0.693; inactive. With knock-down of ANKRD13D (ankyrin repeat domain 13D) #3 the results were total luciferase, z-score 2.07; inactive. ARHGAP10 (Rho GTPase activating protein 10) #1 gave total luciferase, z-score 0.0925; inactive. Silencing of ARHGAP10 (Rho GTPase activating protein 10) #2 came out at: total luciferase, z-score -0.14; inactive. Depletion of ARHGAP10 (Rho GTPase activating protein 10) #3 resulted in: total luciferase, z-score 0.0604; inactive.

For TK2 (thymidine kinase 2) #1 the deposit lists total luciferase, z-score -0.0314; inactive. Against TK2 (thymidine kinase 2) #2, the entry reads total luciferase, z-score 0.0638; inactive. With knock-down of TK2 (thymidine kinase 2) #3, the record shows total luciferase, z-score -0.569; inactive. Against MYRF (myelin regulatory factor) #1, the entry reads total luciferase, z-score 2.51; inactive. Knock-down of MYRF (myelin regulatory factor) #2 resulted in: total luciferase, z-score 4.82; active. MYRF (myelin regulatory factor) #3 scored total luciferase, z-score -0.0445; inactive.

Knock-down of TNKS (tankyrase) #1 resulted in: total luciferase, z-score 0.114; inactive. Knock-down of TNKS (tankyrase) #2 came out at: total luciferase, z-score -0.0954; inactive. Silencing of TNKS (tankyrase) #3 resulted in: total luciferase, z-score 0.848; inactive. SPDYC (speedy/RINGO cell cycle regulator family member C) #1 showed total luciferase, z-score 0; inactive. SPDYC (speedy/RINGO cell cycle regulator family member C) #2 showed total luciferase, z-score -1.45; inactive. For SPDYC (speedy/RINGO cell cycle regulator family member C) #3, the entry reads total luciferase, z-score -0.205; inactive.

DYNC2LI1 (dynein cytoplasmic 2 light intermediate chain 1) #1 scored total luciferase, z-score 1.34; inactive. For DYNC2LI1 (dynein cytoplasmic 2 light intermediate chain 1) #2, the values are total luciferase, z-score 1.48; inactive. Depletion of DYNC2LI1 (dynein cytoplasmic 2 light intermediate chain 1) #3 resulted in: total luciferase, z-score 0.0343; inactive.

Reformatted: 3 of the entries above.
gene | reagent | total luciferase, z-score | Outcome
SPDYC (speedy/RINGO cell cycle regulator family member C) | 1 | 0 | inactive
SPDYC (speedy/RINGO cell cycle regulator family member C) | 2 | -1.45 | inactive
SPDYC (speedy/RINGO cell cycle regulator family member C) | 3 | -0.205 | inactive
